Measurements reported in PMC2672601.

B1: annexin A6 (protein, UniProt P14824 1-673)
chain: MAKIAQGAMYRGSVHDFPEFDANQDAEALYTAMKGFGSDKESILELITSRSNKQRQEICQNYKSLYGKDLIEDLKYELTGKFERLIVNLMRPLAYCDAKEIKDAISGVGTDEKCLIEILASRTNEQMHQLVAAYKDAYERDLESDIIGDTSGHFQKMLVVLLQGTRENDDVVSEDLVQQDVQDLYEAGELKWGTDEAQFIYILGNRSKQHLRLVFDEYLKTTGKPIEASIRGELSGDFEKLMLAVVKCIRSTPEYFAERLFKAMKGLGTRDNTLIRIMVSRSELDMLDIREIFRTKYEKSLYSMIKNDTSGEYKKALLKLCGGDDDAAGQFFPEAAQVAYQMWELSAVSRVELKGTVCAANDFNPDADAKALRKAMKGIGTDEATIIDIVTHRSNAQRQQIRQTFKSHFGRDLMADLKSEISGDLARLILGLMMPPAHYDAKQLKKAMEGAGTDEKTLIEILATRTNAEIRAINEAYKEDYHKSLEDALSSDTSGHFRRILISLATGNREEGGENRDQAQEDAQVAAEILEIADTPSGDKTSLETRFMTVLCTRSYPHLRRVFQEFIKKTNYDIEHVIKKEMSGDVKDAFVAIVQSVKNKPLFFADKLYKSMKGAGTDEKTLTRVMVSRSEIDLLNIRREFIEKYDKSLHQAIEGDTSGDFMKALLALCGGED
B2: delta-catenin-2 (protein, UniProt O35927 1-1247)
chain: MFARKQSGAAPFGAMPVPDQPPSASEKNSSLSPGLNTSNGDGSETETTSAILASVKEQELQFERLTRELEAERQIVASQLERCKLGSETGSMSSISSAGEQFHWQTQDGQKDIEDELTTGLELVDSCIRSLQESGILDPQDYSTSERPSLLSQSALQLNSKPEGSFQYPASYHSNQTLALGDTAPSQLPARSTQARAAGQSFSQGTTGRAGHLAGSEPAPPPPPPREPFAPSLGSAFHLPDAPPAAAALYYSSSTLPAPPRGGSPLTTTQGGSPTKLQRGGSAPEGAAYAAPRGSSPKQSPSRLAKSYSTSSPINIVVSSAGLSPIRVTSPPTVQSTISSSPIHQLSSTIGTYATLSPTKRLVHASEQYSKHSQELYATATLQRPGSLAAGSRASYSSQHGHLAPELRALQSPEHHIDPIYEDRVYQKPPMRSLSQSQGDPLPPAHTGTFRTSTAPSSPGVDSVPLQRTGSQHGPQNAAAATFQRASYAAGPASNYADPYRQLQYCASVDSPYSKSGPALPPEGTLARSPSIDSIQKDPREFGWRDPELPEVIQMLQHQFPSVQSNAAAYLQHLCFGDNKIKAEIRRQGGIQLLVDLLDHRMTEVHRSACGALRNLVYGKANDDNKIALKNCGGIPALVRLLRKTTDLEIRELVTGVLWNLSSCDALKMPIIQDALAVLTNAVIIPHSGWENSPLQDDRKIQLHSSQVLRNATGCLRNVSSAGEEARRRMRECDGLTDALLYVIQSALGSSEIDSKTVENCVCILRNLSYRLAAETSQGQHMGTDELDGLLCGETNGKDTESSGCWGKKKKKKKSQDQWDGVGPLPDCAEPPKGIQMLWHPSIVKPYLTLLSECSNPDTLEGAAGALQNLAAGSWKGWAEDVAGMAYALRSLPEGAPCLPQWSVYIRAAVRKEKGLPILVELLRIDNDRVVCAVATALRNMALDVRNKELIGKYAMRDLVHRLPGGNNSNNSGSKAMSDDTVTAVCCTLHEVITKNMENAKALRDAGGIEKLVGISKSKGDKHSPKVVKAASQVLNSMWQYRDLRSLYKKDGWSQYHFVASSSTIERDRQRPYSSSRTPSISPVRVSPNNRSASAPASPREMISLKERKTDYESAGNNATYHGTKGEHTSRKDTMTAQNTGVSTLYRNSYGAPAEDIKQNQVSTQPVPQEPSRKDYETYQPFPNSTRNYDESFFEDQVHHRPPASEYTMHLGLKSTGNYVDFYSAARPYSELNYETSHYPASPDSWV
B3: internexin (protein, UniProt P46660 1-501)
chain: MSFGSEHYLCSASSYRKVFGDSSRLSARLSGPGGSGSFRSQSLSRSNVASTAACSSASSLGLGLAYRRLPASDGLDLSQAAARTNEYKIIRTNEKEQLQGLNDRFAVFIEKVHQLETQNRALEAELAALRQRHAEPSRVGELFQRELRELRAQLEEASSARAQALLERDGLAEEVQRLRARCEEESRGREGAERALKAQQRDVDGATLARLDLEKKVESLLDELAFVRQVHDEEVAELLATLQASSQAAAEVDVAVAKPDLTSALREIRAQYESLAAKNLQSAEEWYKSKFANLNEQAARSTEAIRASREEIHEYRRQLQARTIEIEGLRGANESLERQILELEERHSAEVAGYQDSIGQLESDLRNTKSEMARHLREYQDLLNVKMALDIEIAAYRKLLEGEETRFSTGGLSISGLNPLPNPSYLLPPRILSSTASKVSSAGLSLKKEEEEEEEEASKEVSKKTSKVGEGFEETLGEAVISTKKTGKSATEESTSSSQKM
B4: Ncoa7 (protein, UniProt Q6DFV7 1-943)
chain: MDTKEEKKEQKERKQSYFARLKKKKQAKQNAEIVSAASSKSRSGKDDANSDILEQDKFNVTAEGDHSTDDKKKRKSNQLKEIRRTELKRYYSVDDNQNKTHDKKEKKMMVQKPQGTMEYTAGSQDTLNSVALKFNVTPNKLVELNKLFTHTIVPGQVLFVPDANISSSTIQLSSSTPGATVSPSSSDAEYDKLPDADLARKALKPIERVLSSTSEEDEPGVVKFLKMNCRYFTDGKGVVGGVMIVTPNNIMFDPHKSDPLVIENGCEEYGLICPMEEVVSIALYSDISHMKIKDALPSDLPRDLCPLYRPGEWEDLASEKDINPFSKFKSINKEKRQQNGERTLALDAKSVRSPEESTERTCTRIEPPDNSELWKLKNLQSSRGTTSESPSVTQLSMRAALEPTAKENCLLKGDEDFVDLEELSSQPESGINKGDATKECLSYDQKKDGPHTVMSAKKGHVQSAQEVMGPESDTELKGALDLETAEKQDEAPEVDKHSGSPENLGESTLNIHEDLDKIKLIEFYLNKNKEGSQLLENVQKSELSDRKSIEPGGIDITLSSSLPQAGDSPPEDNKEPGTLWVKGGETLPLKLDPSAEETVINNKEVLDSLGSSLDKMCHSAQMDNKSEIQLWLLKRIQVPIEDILPSKEEKSKTPPMFLCIKVGKPMRKSFASHTATMVQQYSKRRKQPEYWFAVPRERVDHLYTFFVQWSPDVYGKDAKEQGFVVVEKEELNMIDNFFSEPTTKSWEIITVEEAKRRKSTCSYYEEEEEEEEGLPILQPHSALLENMHIEQLARRLPARVQGYPWRLAYSTLEHGTSLKTLYRKSASLDSPVLLVIKDMDNQIFGAYATHPFKFSDHYYGTGETFLYTFSPNFKVFKWSGENSYFINGDISSLELGGGGGRFGLWLDADLYHGRSNSCSTFNNDILSKKEDFIVQDLEVWTFE
B5: Homer-3 (protein, UniProt Q99JP6 1-356)
chain: MSTAREQPIFSTRAHVFQIDPTTKRNWIPAGKHALTVSYFYDATRNVYRIISIGGAKAIINSTVTPNMTFTKTSQKFGQWADSRANTVYGLGFASEQQLTQFAEKFQEVKEAARLAREKSQDGGEFTSTGLALASHQVPPSPLVSTNGPGEEKLFRSQSADTPGPTERERLKKMLSEGSVGEVQWEAEFFALQDSNQRLAGALREANAAATQWRQQLEVQRAEAELLRQRVAELEAQVAVEPVRAGEKEATSQSVEQLEARVQTKDQTLKNQSTGTREAPDTAEREETQQQVQDLETRNAELEQQLRSMECNLEEARAERERARAEVGRAAQLLDVRLFELSELREGLARLAEAAP
B6: delphilin (protein, UniProt Q0QWG9 1-1203)
chain: MPATNQGWPEDFGFQLGGSGPCFVIEVAEGSSAHAGGLRPGDQILEVEGLAVGGLSRERIVRLARRCPRVPPSLGVLPGPEGGPTALTAAWLTRRFGRSLPLSRELLRLAGGPRPDAVHRERRRKAQEFSCQVDDILGDRLTAKEQVFTALKQFAAEQRVDELVWTLTLVLPSEAQGPVLDNLRIFIPKKHRARFDEVVSQGLLGKLCRARRAQGAQRLRRSRSEERPERLLVSTRASAAPRRPDEPPPRKATSLLGGRTGPGGPRRTVRVYKGNKSFGFTLRGHGPVWIESVLPGSPAENASLKSGDRILFLNGLDMRNCSHDKVVSMLQGSGAMPTLVVEEGPVPFASDSDSLDSPTRASALTSLQWVADILPSSIRVQGRTFSQQLDHLLTPPERYGVCRALERFFQHRNIDTLIVDVYPVLDTPAKQVLWQFLYQLLTYEEQELCQEKIACFLGYTAMTEPESSLDLEPESTPEPTPEPQPRSSLRASSMCRRSLRSQGLETSLSCGPGDCPEMPLPLIPGERQAGDGTSLPETPNPKMMSAVYAELESRLNSSFKGKIGTMSKSRASPPVPSLVGTSGPRTLSGVSWPSDRLLPSPCYDPLCSGGLASPSSSESHPYASLDSSRAPSPQPGLGSIHADSPPSPDPIRPPSRRKLFAFSRPVRSRDTDRFLDALSEQLGPRLSIVDDFLTPENDYEEMSFHDDQGSFVTNERSSASECVSSSEEGSSLTYSSISDHIPPPPLSPPPPPPLPFHDPKPSSRTSDGPRGPPQSLTKPLTQINHPVPPPPPPPLPPPVPCAPPMLSRGVGHRRSETSHMSVKRLRWEQVENSEGTIWGQLGEDSDYDKLSDMVKYLDLELHFGTQKPPKPVPGPEPFRKKEVVEILSHKKAYNTSILLAHLKLTPGELRQVLMSMEPRRLEPAHLAQLLLFAPDADEEQRYQAFREAPGRLSEPDQFVLQMLSVPEYKTRLRSLHFQATLQEKTEEIRGSLECLRQASLELKNSRKLAKILEFVLAMGNYLNDGQPKTNKTTGFKINFLTELNSTKTVDGKSTFLHILAKSLSQHFPELLGFAQDLPTVPLAAKVNQRALTGDLADLHDTVSEIQVACQSMAPSSEDRFAVVMASFLETAQPALRALDGLQREAMEELGKALAFFGEDSKATTSEAFFGIFSEFMSKFERALSDLQAGDGPRSSGMVSPLAW

Target: T1, VGluRδ2 (fusion between Venus and the glutamate receptor delta2, GluRδ2) (UniProt Q61625)
T1 sequence: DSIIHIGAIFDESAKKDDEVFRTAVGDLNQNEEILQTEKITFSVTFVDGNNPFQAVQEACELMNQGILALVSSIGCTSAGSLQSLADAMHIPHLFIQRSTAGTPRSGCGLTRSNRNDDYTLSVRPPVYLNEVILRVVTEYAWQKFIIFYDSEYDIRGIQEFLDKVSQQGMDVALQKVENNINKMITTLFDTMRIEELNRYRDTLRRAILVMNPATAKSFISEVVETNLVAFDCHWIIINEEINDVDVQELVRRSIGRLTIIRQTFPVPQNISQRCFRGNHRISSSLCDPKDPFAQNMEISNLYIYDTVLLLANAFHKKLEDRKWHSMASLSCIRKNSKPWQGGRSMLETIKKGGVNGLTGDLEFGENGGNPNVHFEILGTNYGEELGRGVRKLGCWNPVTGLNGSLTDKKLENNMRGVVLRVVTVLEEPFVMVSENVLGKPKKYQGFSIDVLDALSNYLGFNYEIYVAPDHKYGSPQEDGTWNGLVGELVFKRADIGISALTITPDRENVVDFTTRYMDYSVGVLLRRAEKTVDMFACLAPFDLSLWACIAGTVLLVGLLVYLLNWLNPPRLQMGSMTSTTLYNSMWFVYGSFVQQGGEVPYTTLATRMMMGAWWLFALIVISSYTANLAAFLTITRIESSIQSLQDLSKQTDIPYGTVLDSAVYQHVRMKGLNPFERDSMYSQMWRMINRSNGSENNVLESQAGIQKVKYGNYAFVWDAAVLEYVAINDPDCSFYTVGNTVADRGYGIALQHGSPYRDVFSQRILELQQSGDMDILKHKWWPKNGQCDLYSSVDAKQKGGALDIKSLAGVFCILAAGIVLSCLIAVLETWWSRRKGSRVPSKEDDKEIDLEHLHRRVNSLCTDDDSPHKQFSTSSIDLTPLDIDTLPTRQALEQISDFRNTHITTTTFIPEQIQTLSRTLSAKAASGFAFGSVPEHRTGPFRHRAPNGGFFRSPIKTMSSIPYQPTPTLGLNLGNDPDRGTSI
Assay: affinity purification with mass spectrometry; same anti-GFP affinity purification of pooled synaptic fractions (samples pooled from 30 and from 50 Pcp2/VGluRδ2 cerebella); SDS-PAGE, in-gel trypsin digestion, MALDI QqTOF MS and MALDI-IT MS/MS; control isolates from Pcp2/eGFP mice

binding, binds:
B1, B2, B3, B4, B5, B6

Results are given in words; binding and its absence hold for the method and conditions named. Binding seen in cells or lysates may run through a third protein. A yes stands for co-enrichment or nearness to the bait. Other partners may have been found. Tags and fused reporters may be left off the sequences shown.
